The supplement of paper PMC10849652
The other results are listed elsewhere or left out. Residues, ends and D or L forms follow the SMILES beside them. *: point of attachment. Cbz = O=C(OCc1ccccc1)*

Chains of the proteins cited; added tags and fusions are not shown. Lines headed by an entry give the natural chain unless they say otherwise; changes in a name come on top.
UniProt Q99536: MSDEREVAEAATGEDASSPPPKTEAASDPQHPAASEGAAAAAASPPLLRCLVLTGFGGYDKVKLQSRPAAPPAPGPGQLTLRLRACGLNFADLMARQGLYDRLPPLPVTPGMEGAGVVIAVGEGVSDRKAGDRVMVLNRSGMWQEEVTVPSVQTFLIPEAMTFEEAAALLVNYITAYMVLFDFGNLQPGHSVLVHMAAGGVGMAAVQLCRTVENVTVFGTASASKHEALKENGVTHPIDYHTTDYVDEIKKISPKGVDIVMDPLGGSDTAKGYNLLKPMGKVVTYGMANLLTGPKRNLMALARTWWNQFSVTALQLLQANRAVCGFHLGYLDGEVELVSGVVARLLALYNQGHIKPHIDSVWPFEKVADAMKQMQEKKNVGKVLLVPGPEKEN
UniProt Q15853: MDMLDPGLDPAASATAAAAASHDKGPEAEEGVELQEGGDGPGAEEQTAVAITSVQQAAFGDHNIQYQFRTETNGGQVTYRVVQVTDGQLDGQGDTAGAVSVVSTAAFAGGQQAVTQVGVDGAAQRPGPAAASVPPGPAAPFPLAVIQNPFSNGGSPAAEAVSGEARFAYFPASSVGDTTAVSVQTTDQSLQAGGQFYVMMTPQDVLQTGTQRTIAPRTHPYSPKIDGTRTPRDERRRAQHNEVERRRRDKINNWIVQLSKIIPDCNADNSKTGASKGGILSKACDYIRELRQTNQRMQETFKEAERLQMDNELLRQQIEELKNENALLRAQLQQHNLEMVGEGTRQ
UniProt O94888: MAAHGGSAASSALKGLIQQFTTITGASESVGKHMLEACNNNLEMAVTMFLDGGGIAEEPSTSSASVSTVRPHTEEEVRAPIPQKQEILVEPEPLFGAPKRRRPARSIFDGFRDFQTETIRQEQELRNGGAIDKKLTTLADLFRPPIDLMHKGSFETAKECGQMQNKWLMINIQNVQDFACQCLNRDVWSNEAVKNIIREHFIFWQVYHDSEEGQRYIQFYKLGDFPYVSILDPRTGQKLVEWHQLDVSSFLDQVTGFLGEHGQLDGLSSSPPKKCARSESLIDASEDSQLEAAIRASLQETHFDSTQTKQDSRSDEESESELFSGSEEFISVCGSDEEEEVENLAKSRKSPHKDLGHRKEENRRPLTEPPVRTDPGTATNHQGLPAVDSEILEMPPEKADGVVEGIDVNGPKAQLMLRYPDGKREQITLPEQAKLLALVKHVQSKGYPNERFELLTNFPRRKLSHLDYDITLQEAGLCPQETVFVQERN
UniProt Q9P0L0: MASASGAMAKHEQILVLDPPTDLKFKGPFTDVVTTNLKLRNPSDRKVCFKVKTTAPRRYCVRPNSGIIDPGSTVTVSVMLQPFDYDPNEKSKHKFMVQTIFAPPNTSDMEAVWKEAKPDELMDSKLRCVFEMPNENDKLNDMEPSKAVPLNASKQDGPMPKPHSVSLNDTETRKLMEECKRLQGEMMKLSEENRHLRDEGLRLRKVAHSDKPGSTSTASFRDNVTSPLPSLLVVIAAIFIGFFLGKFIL
UniProt Q9UPU5: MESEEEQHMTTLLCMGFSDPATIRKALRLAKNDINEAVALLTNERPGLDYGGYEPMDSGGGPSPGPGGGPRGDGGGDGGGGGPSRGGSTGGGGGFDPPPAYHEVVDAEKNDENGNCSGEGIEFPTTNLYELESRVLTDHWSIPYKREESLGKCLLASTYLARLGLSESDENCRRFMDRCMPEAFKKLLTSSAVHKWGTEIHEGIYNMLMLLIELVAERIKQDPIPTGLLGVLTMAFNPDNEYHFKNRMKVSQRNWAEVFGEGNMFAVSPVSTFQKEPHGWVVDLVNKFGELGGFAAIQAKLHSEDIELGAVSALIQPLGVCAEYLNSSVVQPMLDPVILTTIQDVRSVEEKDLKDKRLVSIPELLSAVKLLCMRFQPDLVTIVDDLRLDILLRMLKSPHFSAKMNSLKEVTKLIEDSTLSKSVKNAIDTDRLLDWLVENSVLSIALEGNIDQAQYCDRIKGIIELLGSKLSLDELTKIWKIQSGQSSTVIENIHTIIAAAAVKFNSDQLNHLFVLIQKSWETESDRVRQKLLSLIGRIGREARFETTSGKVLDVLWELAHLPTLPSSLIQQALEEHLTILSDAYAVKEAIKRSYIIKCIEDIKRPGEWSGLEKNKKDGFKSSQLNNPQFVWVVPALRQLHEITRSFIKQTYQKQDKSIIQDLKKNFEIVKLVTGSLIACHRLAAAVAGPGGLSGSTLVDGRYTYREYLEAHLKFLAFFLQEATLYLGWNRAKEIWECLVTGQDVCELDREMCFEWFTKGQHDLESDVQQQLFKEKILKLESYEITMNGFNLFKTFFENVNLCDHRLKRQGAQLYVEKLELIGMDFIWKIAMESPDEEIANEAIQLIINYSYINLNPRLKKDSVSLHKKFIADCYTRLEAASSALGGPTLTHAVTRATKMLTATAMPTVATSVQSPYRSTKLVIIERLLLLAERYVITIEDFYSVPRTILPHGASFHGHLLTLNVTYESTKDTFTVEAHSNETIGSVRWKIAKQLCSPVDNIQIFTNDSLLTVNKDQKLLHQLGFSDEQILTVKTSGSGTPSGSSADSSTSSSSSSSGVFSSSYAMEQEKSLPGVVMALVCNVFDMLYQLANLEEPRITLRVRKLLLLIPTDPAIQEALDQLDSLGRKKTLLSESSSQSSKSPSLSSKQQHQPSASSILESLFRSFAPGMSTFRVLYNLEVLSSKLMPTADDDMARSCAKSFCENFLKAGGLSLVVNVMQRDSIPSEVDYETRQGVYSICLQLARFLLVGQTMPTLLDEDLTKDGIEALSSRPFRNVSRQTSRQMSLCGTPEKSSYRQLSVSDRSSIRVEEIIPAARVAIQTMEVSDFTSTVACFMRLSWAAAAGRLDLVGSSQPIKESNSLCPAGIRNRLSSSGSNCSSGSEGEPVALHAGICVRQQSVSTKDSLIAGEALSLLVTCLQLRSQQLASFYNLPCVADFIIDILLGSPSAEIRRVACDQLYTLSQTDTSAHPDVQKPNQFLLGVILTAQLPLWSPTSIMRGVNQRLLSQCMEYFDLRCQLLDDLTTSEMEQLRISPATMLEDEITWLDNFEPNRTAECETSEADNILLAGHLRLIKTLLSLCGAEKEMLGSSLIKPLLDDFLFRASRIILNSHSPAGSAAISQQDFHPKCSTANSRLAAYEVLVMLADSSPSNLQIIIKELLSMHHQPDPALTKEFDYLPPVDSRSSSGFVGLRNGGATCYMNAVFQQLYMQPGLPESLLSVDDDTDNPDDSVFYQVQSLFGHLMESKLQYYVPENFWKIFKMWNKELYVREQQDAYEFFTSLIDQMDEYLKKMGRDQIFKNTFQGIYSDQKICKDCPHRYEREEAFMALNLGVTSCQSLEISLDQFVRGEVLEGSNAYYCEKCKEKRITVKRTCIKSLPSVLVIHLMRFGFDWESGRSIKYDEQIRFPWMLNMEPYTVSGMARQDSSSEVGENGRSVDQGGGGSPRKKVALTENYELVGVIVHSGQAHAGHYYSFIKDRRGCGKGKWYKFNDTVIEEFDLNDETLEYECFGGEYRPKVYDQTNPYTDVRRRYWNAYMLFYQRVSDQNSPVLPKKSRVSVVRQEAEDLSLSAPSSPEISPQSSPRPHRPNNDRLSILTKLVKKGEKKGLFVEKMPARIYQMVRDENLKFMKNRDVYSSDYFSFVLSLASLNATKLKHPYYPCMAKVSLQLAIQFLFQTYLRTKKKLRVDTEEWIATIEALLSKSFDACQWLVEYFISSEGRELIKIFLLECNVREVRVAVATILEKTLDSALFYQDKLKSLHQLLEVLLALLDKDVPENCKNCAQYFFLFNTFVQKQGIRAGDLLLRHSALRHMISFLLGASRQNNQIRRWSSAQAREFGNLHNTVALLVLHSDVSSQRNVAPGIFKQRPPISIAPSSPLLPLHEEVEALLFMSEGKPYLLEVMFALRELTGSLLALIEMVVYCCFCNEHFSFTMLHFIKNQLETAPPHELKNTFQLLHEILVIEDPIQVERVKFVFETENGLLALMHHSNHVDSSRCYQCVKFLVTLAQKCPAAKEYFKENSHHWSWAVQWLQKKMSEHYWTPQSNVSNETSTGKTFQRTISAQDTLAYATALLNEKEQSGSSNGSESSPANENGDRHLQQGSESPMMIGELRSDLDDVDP
UniProt P07919: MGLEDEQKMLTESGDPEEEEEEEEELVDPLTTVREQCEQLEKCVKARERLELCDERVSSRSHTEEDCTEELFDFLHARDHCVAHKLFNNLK
UniProt Q16851: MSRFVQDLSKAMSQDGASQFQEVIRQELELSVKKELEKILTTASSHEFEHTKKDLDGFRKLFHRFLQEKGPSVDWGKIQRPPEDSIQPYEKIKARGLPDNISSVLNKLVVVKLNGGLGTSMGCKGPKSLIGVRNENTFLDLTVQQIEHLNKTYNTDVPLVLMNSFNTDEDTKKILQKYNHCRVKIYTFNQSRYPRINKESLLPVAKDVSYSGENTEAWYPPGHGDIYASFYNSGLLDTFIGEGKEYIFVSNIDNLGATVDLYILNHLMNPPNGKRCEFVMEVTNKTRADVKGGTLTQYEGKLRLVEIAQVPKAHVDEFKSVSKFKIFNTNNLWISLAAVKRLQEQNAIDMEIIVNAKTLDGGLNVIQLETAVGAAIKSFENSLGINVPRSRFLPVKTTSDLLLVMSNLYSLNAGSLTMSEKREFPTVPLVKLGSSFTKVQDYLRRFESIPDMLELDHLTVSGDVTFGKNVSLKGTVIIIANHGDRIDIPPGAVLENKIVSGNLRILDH

Legend:
Assay in all cases: log2 fold change, soluble protein after heating vs DMSO (PISA); higher = thermal stabilisation; K562 cells, 10 uM, 30 min; active = over 0.2 and 3.5 SD of the protein, either way, in both replicates (recomputed)
erlotinib = compound: C#Cc1cccc(Nc2ncnc3cc(OCCOC)c(OCCOC)cc23)c1 [erlotinib]
Procedure, shortened: (§1)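 K562 cells at 2×10^6 cells/mL were given 10 μM compound for 30 min. Aliquots then went through 3 min of heating across 48°C-58°C, were pooled, and were extracted in PBS with 0.5% NP-40 at 4°C, and the supernatant after 21,000xg for 90 min was quantified by TMTpro 16plex LC-MS/MS with channel sums equalised. Thermal stability relative to control samples, from duplicates, is given as log2 fold change.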

[1] = compound: C/C(=N\NC(=O)C1=CC(=CC=C1)S(=O)(=O)N2CCOCC2)/C3=C(C=CC(=C3)Cl)O
Procedure, shortened: as §1

[2] = compound: C1=CC(=C(C=C1Cl)C2=NC3=NC=CN=C3C(=N2)NC4=CC=NC=C4)F
Procedure, shortened: as §1

[3] = compound: C1=CC(=CC=C1C2=NC3=C(N2)C=C(C=C3)C(=O)N)OC4=CC=C(C=C4)Cl
Procedure, shortened: as §1

[4] = compound: C1=CC2=C(C=CC(=C2)/C=C\3/C(=O)NC(=NCC4=CC=CS4)S3)N=C1
Procedure, shortened: as §1

[5] = compound: C1=CC2=NC=CN=C2C=C1/C=C/3\C(=O)NC(=O)S3
Procedure, shortened: as §1

[6] = compound: C1=CC=C(C=C1)C2=NC(=C(N2)C3=CC=NC=C3)C4=CC(=C(C=C4)Cl)O
Procedure, shortened: as §1

[7] = compound: C1=CC=C2C(=C1)C3=NNC4=CC=CC(=C43)C2=O
Procedure, shortened: as §1

[8] = compound: C1CCN(C1)C(=O)NC2=CC=CC(=C2)NC3=NC=C(C(=N3)NCCC4=CN=CN4)Br
Procedure, shortened: as §1

[9] = compound: C1CN(CCC1(CC2=CC=C(C=C2)Cl)N)C3=NC=NC4=C3C=CN4
Procedure, shortened: as §1

IRAK-1-4 Inhibitor I = compound: C1COCCN1CCN2C3=CC=CC=C3N=C2NC(=O)C4=CC(=CC=C4)[N+](=O)[O-] [IRAK-1-4 Inhibitor I]
Procedure, shortened: as §1

ibrutinib = compound: C=CC(=O)N1CCC[C@@H](n2nc(-c3ccc(Oc4ccccc4)cc3)c3c(N)ncnc32)C1 [ibrutinib]
Procedure, shortened: as §1

[10] = compound: CC(=O)c1cnc2ccc(-c3cc(Cl)c(O)c(Cl)c3)nc2c1N[C@H]1CC[C@H](CN(C)C)CC1
Procedure, shortened: as §1

ralimetinib = compound: CC(C)(C)Cn1c(N)nc2ccc(-c3[nH]c(C(C)(C)C)nc3-c3ccc(F)cc3)nc21 [ralimetinib]
Procedure, shortened: as §1

[11] = compound: CC(C)(O)CC(=O)NCCn1ccc2ncnc(Nc3ccc(Oc4cccc(C(F)(F)F)c4)c(Cl)c3)c21
Procedure, shortened: as §1

[12] = compound: CC(C)C1=C2N=C(C=C(N2N=C1)NCC3=CC=CC=C3)NCCCCCCN
Procedure, shortened: as §1

[13] = compound: CC(C)C[C@@H](C=O)NC(=O)[C@H](CC(C)C)NC(=O)[C@H](CC(C)C)NC(=O)OCc1ccccc1
Procedure, shortened: as §1

pinometostat = compound: CC(C)N(C[C@H]1O[C@@H](n2cnc3c(N)ncnc32)[C@H](O)[C@@H]1O)[C@H]1C[C@@H](CCc2nc3cc(C(C)(C)C)ccc3[nH]2)C1 [pinometostat]
Procedure, shortened: as §1

[14] = compound: CC1=C(C(CC(=O)N1)C2=CC=C(C=C2)C(F)(F)F)C(=O)NC3=C(C=C4C(=C3)C=NN4)F
Procedure, shortened: as §1

[15] = compound: CC1=C(C2=C(C=C1)C(=O)C3=CC=CC=C3N2CCCN)C
Procedure, shortened: as §1

Measured: log2 fold change

VAT1 (UniProt Q99536)
inactive: erlotinib -0.003 | [1] 0.013 | [2] 0.02 | [3] -0.019 | [4] 0.055 | [5] -0.013 | [6] 0.064 | [7] -0.038 | [8] 0.008 | [9] 0.064 | IRAK-1-4 Inhibitor I 0.021 | ibrutinib 0.071 | [10] -0.035 | ralimetinib -0.013 | [11] 0.081 | [12] 0.107 | [13] -0.028 | pinometostat -0.058 | [14] -0.012 | [15] -0.003

USF2 (UniProt Q15853)
inactive: erlotinib -0.007 | [1] 0.036 | [2] 0.076 | [3] 0.177 | [4] 0.121 | [5] 0.011 | [6] 0.001 | [7] -0.005 | [8] 0.02 | [9] 0.026 | IRAK-1-4 Inhibitor I -0.01 | ibrutinib -0.031 | [10] -0.042 | ralimetinib 0.057 | [11] -0.086 | [12] -0.005 | [13] 0.085 | pinometostat -0.014 | [14] 0.05 | [15] -0.04

UBXN7 (UniProt O94888)
inactive: erlotinib 0.032 | [1] 0.051 | [2] 0.046 | [3] 0.037 | [4] 0.028 | [5] 0.006 | [6] -0.021 | [7] -0.023 | [8] -0.009 | [9] 0.029 | IRAK-1-4 Inhibitor I 0.058 | ibrutinib -0.001 | [10] 0.001 | ralimetinib -0.029 | [11] -0.018 | [12] 0.015 | [13] 0.015 | pinometostat 0.008 | [14] -0.002 | [15] -0.056

VAPA isoform 2 (UniProt Q9P0L0)
inactive: erlotinib 0.021 | [1] -0.051 | [2] -0.018 | [3] -0.064 | [4] -0.014 | [5] 0.023 | [6] -0.014 | [7] -0.015 | [8] -0.005 | [9] 0.042 | IRAK-1-4 Inhibitor I 0.002 | ibrutinib 0.005 | [10] 0.017 | ralimetinib -0.048 | [11] 0.061 | [12] 0.037 | [13] -0.016 | pinometostat -0.048 | [14] 0.024 | [15] 0

USP24 (UniProt Q9UPU5)
inactive: erlotinib 0.126 | [1] -0.147 | [2] 0.101 | [3] -0.113 | [4] 0.092 | [5] 0.148 | [6] 0.141 | [7] 0.094 | [8] 0.181 | [9] 0.297 | IRAK-1-4 Inhibitor I 0.052 | ibrutinib 0.086 | [10] 0.156 | ralimetinib -0.077 | [11] -0.093 | [12] 0.004 | [13] -0.043 | pinometostat -0.026 | [15] 0.017

UBR4 isoform 2 (UniProt Q5T4S7)
inactive: erlotinib -0.05 | [1] 0.016 | [2] -0.051 | [3] -0.021 | [4] -0.002 | [5] -0.001 | [6] 0.041 | [7] 0.019 | [8] -0.015 | [9] -0.095 | IRAK-1-4 Inhibitor I -0.064 | ibrutinib -0.038 | [10] 0.049 | ralimetinib 0.089 | [11] 0 | [12] -0.158 | [13] 0.056 | pinometostat 0.138 | [14] 0.017 | [15] 0.025

UQCRH (UniProt P07919)
inactive: erlotinib 0.034 | [1] -0.082 | [2] 0.051 | [3] -0.067 | [4] 0.071 | [5] 0.05 | [6] -0.048 | [7] -0.095 | [8] 0.036 | [9] -0.027 | IRAK-1-4 Inhibitor I -0.063 | ibrutinib 0.024 | [10] -0.015 | ralimetinib -0.068 | [11] -0.003 | [12] 0.082 | [13] -0.005 | pinometostat -0.051 | [14] 0.148 | [15] -0.035

UGP2 (UniProt Q16851)
inactive: erlotinib 0.004 | [1] 0.006 | [2] 0.057 | [3] 0.001 | [4] 0.024 | [5] 0.003 | [6] 0.003 | [7] 0 | [8] -0.004 | [9] 0.043 | IRAK-1-4 Inhibitor I 0.006 | ibrutinib -0.023 | [10] -0.026 | ralimetinib -0.078 | [11] -0.047 | [12] 0.068 | [13] -0.031 | pinometostat -0.032 | [14] 0.003 | [15] 0.065
